The values below come from paper PMC4463457.

Protein sequences, listed by entry. Tags and fused reporters are not part of them.
UniProt P35462: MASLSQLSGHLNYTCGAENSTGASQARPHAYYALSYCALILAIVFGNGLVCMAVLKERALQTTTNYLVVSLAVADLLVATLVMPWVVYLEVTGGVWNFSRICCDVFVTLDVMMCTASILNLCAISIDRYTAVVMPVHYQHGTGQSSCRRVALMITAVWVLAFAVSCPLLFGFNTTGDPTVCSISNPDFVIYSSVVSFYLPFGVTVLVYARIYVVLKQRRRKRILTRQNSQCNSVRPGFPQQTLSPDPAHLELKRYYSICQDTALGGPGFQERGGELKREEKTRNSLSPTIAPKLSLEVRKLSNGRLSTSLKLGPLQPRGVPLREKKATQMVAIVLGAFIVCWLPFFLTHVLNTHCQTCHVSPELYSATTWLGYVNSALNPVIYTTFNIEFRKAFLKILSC

These are yes or no findings as the source states them, for the method shown. Binding seen in cells or lysates may run through a third protein. Some results given as binding are weak or reduced against the parent protein; the word gives no strength.

The target in this test is VSV-SNAP-hD3 (VSV- and SNAP-tagged human dopamine D3 receptor) (human) (UniProt P35462). As to the kind of experiment: FRET or BRET; htrFRET (Tag-Lite) on intact transfected HEK293T cells; SNAP-Lumi4-Tb 10 nM as donor and increasing concentrations of SNAP-Red as acceptor; hD3 and EGFR constructs at similar cell surface expression; emission at 665 nm after excitation at 337 nm.

For “VSV-SNAP-hD3 (VSV- and SNAP-tagged human dopamine D3 receptor) (from UniProt P35462 1-400)”, the binding result is “binds”.
